Measurements: the supplement of paper PMC11732987, “Enantioselective OTUD7B fragment discovery through chemoproteomics screening and high-throughput optimisation” (Communications Chemistry, 2025)
This is one part of the list. The data scatter; read single values as rough.

Amino acid sequences for entries named in this document (tags omitted). A change or cut given only in a name is not applied to a line headed by its entry.
UniProt Q99436: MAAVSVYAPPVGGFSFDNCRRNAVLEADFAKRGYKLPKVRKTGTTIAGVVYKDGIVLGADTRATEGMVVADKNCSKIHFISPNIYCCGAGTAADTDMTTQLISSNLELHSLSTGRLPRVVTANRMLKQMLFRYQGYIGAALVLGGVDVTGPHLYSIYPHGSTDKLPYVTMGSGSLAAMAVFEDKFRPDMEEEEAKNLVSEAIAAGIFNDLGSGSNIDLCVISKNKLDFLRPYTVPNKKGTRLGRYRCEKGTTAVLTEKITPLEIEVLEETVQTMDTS
UniProt P20337: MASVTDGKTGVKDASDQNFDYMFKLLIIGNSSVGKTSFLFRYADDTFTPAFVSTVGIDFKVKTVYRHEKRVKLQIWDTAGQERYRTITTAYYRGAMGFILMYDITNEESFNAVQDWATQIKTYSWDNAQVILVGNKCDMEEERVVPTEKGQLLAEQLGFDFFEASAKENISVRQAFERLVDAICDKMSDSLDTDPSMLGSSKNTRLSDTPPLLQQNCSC
UniProt Q9Y620: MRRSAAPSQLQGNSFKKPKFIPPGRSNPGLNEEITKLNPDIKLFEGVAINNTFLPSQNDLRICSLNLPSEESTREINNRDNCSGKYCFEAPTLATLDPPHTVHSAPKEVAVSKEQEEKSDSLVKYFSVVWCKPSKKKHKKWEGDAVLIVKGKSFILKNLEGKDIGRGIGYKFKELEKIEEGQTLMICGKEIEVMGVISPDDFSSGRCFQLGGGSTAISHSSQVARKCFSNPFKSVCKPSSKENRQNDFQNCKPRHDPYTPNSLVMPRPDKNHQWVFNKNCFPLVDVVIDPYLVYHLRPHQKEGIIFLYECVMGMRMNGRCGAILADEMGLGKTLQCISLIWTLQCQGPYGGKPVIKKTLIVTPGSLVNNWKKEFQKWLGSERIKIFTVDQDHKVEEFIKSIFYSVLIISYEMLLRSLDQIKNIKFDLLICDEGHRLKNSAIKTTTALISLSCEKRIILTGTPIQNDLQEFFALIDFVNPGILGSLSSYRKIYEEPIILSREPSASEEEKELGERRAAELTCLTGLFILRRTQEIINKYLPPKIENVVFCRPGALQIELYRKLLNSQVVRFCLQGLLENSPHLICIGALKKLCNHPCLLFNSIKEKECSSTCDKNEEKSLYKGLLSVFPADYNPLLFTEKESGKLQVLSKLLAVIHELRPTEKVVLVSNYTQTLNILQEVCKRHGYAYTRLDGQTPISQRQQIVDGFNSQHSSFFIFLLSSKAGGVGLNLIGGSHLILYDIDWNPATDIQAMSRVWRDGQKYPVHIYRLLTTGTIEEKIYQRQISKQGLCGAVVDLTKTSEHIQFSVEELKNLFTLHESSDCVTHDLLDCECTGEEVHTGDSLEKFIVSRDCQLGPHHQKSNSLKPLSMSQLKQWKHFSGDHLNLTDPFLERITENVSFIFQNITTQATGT
UniProt Q86Y79: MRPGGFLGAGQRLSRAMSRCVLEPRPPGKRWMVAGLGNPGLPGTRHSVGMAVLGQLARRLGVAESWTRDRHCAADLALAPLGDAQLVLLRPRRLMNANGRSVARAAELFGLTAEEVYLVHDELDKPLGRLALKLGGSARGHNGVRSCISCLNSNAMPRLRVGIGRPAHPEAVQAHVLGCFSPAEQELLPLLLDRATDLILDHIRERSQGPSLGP
UniProt Q9P2W1: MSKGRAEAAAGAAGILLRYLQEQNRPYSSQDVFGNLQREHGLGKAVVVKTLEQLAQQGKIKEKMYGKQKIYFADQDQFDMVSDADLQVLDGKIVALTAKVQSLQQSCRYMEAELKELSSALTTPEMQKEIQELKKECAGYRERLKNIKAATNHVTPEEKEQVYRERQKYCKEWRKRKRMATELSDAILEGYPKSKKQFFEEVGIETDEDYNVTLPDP
UniProt Q15269: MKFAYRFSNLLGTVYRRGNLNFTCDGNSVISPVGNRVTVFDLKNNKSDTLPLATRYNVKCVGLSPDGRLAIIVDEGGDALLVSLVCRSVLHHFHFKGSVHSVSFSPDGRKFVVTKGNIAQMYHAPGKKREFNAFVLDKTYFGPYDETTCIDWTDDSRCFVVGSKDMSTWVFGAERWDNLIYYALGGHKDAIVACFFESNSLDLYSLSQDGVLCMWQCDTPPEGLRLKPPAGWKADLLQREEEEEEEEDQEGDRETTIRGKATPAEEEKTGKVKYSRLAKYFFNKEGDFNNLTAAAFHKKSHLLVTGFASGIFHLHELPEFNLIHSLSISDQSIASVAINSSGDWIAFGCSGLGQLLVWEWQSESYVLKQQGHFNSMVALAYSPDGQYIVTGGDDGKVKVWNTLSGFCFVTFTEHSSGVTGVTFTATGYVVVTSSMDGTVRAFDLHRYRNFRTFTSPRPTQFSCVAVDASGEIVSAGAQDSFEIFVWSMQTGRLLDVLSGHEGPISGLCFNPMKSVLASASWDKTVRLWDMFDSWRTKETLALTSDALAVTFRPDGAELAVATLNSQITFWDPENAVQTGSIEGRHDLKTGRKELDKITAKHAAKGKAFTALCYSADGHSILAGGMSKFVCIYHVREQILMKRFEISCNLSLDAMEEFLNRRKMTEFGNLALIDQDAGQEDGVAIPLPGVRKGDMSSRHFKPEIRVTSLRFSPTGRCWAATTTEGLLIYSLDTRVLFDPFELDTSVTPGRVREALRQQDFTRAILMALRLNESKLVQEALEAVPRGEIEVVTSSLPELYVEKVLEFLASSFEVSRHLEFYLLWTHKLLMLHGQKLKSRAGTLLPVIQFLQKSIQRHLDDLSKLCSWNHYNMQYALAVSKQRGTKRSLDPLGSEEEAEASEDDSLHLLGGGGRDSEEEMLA
UniProt Q15008: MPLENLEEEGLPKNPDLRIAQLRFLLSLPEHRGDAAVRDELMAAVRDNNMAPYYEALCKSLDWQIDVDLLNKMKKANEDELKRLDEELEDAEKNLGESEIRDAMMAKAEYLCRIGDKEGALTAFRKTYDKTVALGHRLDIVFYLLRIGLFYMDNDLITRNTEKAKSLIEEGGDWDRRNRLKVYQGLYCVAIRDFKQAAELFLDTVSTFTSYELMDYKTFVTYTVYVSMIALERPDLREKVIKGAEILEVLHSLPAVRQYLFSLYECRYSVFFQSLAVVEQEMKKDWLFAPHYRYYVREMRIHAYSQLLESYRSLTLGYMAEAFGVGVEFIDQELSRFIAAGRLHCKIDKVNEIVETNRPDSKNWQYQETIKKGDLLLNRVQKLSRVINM
UniProt P43378: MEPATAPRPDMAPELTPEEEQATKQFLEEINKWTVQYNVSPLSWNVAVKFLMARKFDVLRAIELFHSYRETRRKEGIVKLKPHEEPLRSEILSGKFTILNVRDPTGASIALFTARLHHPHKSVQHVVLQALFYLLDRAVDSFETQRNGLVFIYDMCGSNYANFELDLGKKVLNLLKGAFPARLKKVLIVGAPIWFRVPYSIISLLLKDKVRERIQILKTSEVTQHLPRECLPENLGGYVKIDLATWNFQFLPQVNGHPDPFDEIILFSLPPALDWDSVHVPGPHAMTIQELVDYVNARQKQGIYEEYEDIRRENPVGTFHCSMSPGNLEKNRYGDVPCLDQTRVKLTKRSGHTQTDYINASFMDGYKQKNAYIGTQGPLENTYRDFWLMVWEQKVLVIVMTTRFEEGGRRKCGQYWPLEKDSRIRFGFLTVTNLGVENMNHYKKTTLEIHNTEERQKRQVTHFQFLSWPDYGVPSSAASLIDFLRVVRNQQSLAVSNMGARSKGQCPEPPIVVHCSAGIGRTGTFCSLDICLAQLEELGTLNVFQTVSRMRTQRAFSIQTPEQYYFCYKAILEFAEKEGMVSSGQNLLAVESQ
UniProt Q5THK1: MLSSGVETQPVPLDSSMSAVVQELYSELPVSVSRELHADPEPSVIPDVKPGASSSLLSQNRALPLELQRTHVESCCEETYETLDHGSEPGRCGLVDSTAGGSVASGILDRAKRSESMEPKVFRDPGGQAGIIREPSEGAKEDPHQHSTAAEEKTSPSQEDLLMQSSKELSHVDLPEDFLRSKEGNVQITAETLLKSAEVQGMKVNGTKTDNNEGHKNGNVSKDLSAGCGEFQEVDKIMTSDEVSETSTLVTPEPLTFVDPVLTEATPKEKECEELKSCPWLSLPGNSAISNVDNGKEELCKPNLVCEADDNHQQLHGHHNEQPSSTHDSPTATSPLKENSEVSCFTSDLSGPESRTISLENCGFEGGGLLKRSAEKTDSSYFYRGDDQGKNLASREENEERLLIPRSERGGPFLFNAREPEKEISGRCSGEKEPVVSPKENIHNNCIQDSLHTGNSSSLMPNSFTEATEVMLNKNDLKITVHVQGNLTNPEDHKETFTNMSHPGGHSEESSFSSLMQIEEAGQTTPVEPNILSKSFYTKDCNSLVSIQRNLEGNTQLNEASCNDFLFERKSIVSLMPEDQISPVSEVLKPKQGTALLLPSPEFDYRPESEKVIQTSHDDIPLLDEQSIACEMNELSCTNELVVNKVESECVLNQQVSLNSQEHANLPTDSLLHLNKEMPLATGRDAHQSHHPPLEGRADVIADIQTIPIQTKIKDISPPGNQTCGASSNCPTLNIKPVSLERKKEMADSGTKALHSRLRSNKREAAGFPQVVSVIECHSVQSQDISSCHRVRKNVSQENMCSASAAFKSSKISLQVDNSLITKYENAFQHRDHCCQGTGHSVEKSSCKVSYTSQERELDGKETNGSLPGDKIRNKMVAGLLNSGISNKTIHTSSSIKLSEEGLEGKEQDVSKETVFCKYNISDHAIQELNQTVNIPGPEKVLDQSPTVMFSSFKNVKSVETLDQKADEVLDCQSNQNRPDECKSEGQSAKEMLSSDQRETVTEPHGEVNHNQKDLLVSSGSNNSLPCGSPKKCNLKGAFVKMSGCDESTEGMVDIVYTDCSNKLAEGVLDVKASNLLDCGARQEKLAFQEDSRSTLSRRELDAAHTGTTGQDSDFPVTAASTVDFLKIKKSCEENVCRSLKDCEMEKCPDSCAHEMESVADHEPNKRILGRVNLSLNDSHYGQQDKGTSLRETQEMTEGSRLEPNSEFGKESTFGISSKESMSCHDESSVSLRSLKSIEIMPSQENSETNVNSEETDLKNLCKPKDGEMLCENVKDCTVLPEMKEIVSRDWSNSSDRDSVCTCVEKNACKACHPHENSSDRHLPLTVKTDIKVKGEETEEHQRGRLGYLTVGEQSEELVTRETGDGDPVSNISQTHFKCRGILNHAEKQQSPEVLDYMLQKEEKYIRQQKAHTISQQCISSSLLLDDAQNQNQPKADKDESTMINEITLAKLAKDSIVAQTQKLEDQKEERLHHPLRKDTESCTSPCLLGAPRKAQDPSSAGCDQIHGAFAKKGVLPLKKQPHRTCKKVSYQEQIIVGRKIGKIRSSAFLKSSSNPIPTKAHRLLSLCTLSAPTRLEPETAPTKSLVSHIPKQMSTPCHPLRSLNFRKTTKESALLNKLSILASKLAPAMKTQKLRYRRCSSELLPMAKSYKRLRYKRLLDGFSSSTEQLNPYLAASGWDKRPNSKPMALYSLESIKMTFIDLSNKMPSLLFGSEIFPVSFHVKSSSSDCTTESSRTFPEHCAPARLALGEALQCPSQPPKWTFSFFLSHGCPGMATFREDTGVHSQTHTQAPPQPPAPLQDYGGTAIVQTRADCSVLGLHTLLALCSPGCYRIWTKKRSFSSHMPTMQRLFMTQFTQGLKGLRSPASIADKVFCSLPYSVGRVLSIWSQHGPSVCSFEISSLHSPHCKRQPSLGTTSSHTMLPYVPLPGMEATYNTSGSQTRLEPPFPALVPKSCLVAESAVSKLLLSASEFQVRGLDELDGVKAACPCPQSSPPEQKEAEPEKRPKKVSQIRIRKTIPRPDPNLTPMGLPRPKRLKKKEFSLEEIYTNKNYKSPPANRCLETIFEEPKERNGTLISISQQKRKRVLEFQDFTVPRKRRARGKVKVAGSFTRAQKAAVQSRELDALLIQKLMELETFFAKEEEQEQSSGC
UniProt Q9H5N1: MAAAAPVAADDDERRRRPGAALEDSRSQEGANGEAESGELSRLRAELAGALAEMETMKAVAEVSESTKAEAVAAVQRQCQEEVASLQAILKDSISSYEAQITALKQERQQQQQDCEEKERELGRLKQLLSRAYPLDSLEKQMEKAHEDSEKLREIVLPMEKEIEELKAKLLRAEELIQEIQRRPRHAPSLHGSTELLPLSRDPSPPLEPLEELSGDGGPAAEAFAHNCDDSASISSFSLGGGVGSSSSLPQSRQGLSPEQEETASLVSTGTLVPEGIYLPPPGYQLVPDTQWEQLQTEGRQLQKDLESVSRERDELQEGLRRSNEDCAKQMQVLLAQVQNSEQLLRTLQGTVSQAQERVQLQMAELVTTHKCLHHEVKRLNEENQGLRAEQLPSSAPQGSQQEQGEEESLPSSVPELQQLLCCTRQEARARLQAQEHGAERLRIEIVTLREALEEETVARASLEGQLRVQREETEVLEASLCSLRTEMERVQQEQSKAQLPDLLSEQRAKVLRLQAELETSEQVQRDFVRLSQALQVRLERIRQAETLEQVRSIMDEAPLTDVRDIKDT
UniProt Q5JS54: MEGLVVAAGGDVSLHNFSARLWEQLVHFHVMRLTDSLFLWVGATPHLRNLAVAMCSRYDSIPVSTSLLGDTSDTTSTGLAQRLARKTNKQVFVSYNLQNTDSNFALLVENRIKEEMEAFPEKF

These targets were tested with ClCC(=O)N[C@H]1CCCc2ccccc12 (assay: log2 mean competition ratio of IA-DTB cysteine labelling (DMSO/compound) (log2 ratio); higher = stronger cysteine engagement by compound). Conditions: 50 µM; treatment time: 4 h; cell line lysate: HEK293T.
Description: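 IA-DTB competitive cysteine chemoproteomics in HEK293T RIPA lysate. Lysates were treated with compound 29 or 30 at 50 or 200 µM for 4 h, then IA-DTB (500 µM, 1 h), trypsin-digested, NeutrAvidin-enriched and analysed by diaPASEF. Competition ratio = intensity DMSO / intensity compound (n=4 treated, n=64 DMSO); binding: mean log2 CR ≥ 1 and p ≤ 0.05 plus QC filters. Target is the cysteine site.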
PSMA3 C42 was tested, and the “log2 mean competition ratio” value was -0.389.
R3HCC1L C469 was tested, and the “log2 mean competition ratio” value was -0.00495.
For PSMB7 C74 (UniProt Q99436), the “log2 mean competition ratio” value was 0.0385.
In the case of RAB3B C184 (UniProt P20337), the “log2 mean competition ratio” value is reported as 0.0301.
PTPN13 C798 (UniProt Q12923) was tested, and the “log2 mean competition ratio” value was 0.15.
PTK2 C559 (UniProt Q05397) was tested, and the “log2 mean competition ratio” value was 0.132.
RAD54B C251 (UniProt Q9Y620) was tested, and the “log2 mean competition ratio” value was 0.0183.
With PYGO1 C317 the “log2 mean competition ratio” value was -0.145.

Same assay, conditions: 200 µM; treatment time: 4 h; cell line lysate: HEK293T
PSMC5 C112 was tested, and the “log2 mean competition ratio” value was 0.166.
RAB3IL1 C29 was tested, and the “log2 mean competition ratio” value was 0.209.
PTRH1 C20 (UniProt Q86Y79) was tested, and the “log2 mean competition ratio” value was -0.0501.
PXN C108 (UniProt P49023) was tested, and the “log2 mean competition ratio” value was 0.0889.
For PSMC3IP C107 (UniProt Q9P2W1), the “log2 mean competition ratio” value was 0.254.
PUS7 C421 (UniProt Q96PZ0) was tested, and the “log2 mean competition ratio” value was -0.057.
For QRSL1 C236 (UniProt Q9H0R6), the “log2 mean competition ratio” value was 0.009.
PWP2 C24 (UniProt Q15269) was tested, and the “log2 mean competition ratio” value was -0.0781.
PSMD6 C58 (UniProt Q15008) was tested, and the “log2 mean competition ratio” value was 0.181.
For PSMD4 C58, the “log2 mean competition ratio” value was -0.392.
R3HCC1 C100 (UniProt Q9Y3T6+R3HCC1) was tested, and the “log2 mean competition ratio” value was 0.191.
With PTPN9 C230 (UniProt P43378) the “log2 mean competition ratio” value was -0.217.
With PRR14L C1503 (UniProt Q5THK1) the “log2 mean competition ratio” value was 0.0447.
For RAD54L2 C71 (UniProt Q9Y4B4), the “log2 mean competition ratio” value was 0.0454.
RABL6 C491 (UniProt Q3YEC7) was tested, and the “log2 mean competition ratio” value was 0.352.
For RABEP2 C482 (UniProt Q9H5N1), the “log2 mean competition ratio” value was -0.133.
PSMG4 C55 (UniProt Q5JS54) was tested, and the “log2 mean competition ratio” value was -0.283.
PYCR1 C262 was tested, and the “log2 mean competition ratio” value was 0.114.
With RABEPK C115 (UniProt Q7Z6M1) the “log2 mean competition ratio” value was -0.11.
With PTPN11 C104 the “log2 mean competition ratio” value was -0.283.
For RAB34 C19, the “log2 mean competition ratio” value was -0.109.
PTPN13 C2024 (UniProt Q12923) was tested, and the “log2 mean competition ratio” value was 0.145.
